Some of the results follow. Small differences around the control level are noise.
compound: Cc1nc(Nc2ncc(C(=O)Nc3c(C)cccc3Cl)s2)cc(N2CCN(CCO)CC2)n1 [dasatinib]; test: log2 fold change of tryptic peptide abundance, ligand vs vehicle (limited proteolysis) (log2 ratio); higher = more trypsin-susceptible (destabilized); conditions: ligand concentration: 5 uM; sample: K562 cleared lysate

Amino acid sequences for entries named in this document (tags omitted). A change or cut given only in a name is not applied to a line headed by its entry.
UniProt Q00532: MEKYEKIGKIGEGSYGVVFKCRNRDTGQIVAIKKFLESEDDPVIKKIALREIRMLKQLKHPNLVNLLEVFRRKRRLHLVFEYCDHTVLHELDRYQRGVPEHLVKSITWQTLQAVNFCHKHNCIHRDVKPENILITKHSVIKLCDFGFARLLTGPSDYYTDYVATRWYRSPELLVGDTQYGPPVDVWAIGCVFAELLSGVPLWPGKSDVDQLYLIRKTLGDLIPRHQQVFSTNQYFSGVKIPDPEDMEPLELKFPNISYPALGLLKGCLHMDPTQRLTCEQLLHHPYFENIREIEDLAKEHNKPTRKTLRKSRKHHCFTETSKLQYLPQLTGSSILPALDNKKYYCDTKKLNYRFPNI
UniProt P83876: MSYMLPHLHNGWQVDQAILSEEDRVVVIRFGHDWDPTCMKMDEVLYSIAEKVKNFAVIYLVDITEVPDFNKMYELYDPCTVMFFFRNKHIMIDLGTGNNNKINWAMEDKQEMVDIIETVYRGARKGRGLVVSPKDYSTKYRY
UniProt Q07866: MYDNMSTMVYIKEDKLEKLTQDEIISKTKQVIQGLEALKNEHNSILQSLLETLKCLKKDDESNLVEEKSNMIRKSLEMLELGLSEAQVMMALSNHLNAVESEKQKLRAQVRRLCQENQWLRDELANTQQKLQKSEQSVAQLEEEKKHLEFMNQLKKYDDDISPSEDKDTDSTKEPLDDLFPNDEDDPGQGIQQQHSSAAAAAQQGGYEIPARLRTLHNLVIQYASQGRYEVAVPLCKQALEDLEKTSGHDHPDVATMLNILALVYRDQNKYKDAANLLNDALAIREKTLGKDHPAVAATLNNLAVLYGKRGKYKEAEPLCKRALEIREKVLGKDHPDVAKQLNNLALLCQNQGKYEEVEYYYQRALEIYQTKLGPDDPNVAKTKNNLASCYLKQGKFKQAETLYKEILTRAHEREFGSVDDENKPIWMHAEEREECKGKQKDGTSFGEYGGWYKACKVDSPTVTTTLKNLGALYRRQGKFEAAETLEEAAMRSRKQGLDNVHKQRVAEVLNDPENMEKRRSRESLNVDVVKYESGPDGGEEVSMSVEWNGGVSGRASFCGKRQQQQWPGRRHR
UniProt Q02410: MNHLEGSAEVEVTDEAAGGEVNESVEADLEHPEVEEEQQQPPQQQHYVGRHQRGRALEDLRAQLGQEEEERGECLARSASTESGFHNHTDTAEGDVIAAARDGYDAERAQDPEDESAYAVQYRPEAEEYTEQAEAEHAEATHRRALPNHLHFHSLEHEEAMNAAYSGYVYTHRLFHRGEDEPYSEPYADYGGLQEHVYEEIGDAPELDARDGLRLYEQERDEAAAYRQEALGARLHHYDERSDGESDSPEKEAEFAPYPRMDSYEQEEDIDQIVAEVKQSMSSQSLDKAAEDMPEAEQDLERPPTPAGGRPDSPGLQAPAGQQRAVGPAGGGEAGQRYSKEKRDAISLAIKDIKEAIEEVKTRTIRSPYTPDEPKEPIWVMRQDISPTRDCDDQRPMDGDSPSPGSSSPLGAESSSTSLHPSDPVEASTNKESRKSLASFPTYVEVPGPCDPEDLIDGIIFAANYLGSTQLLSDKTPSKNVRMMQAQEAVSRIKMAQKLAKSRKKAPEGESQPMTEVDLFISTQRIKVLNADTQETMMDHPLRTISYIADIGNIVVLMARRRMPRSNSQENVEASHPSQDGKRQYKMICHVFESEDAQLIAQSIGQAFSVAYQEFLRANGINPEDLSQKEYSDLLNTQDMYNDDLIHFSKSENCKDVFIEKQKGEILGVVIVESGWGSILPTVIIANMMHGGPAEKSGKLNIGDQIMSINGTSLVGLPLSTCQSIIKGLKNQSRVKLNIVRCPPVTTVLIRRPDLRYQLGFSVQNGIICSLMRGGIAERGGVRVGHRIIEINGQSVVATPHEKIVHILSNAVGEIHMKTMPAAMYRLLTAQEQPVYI
UniProt Q04446: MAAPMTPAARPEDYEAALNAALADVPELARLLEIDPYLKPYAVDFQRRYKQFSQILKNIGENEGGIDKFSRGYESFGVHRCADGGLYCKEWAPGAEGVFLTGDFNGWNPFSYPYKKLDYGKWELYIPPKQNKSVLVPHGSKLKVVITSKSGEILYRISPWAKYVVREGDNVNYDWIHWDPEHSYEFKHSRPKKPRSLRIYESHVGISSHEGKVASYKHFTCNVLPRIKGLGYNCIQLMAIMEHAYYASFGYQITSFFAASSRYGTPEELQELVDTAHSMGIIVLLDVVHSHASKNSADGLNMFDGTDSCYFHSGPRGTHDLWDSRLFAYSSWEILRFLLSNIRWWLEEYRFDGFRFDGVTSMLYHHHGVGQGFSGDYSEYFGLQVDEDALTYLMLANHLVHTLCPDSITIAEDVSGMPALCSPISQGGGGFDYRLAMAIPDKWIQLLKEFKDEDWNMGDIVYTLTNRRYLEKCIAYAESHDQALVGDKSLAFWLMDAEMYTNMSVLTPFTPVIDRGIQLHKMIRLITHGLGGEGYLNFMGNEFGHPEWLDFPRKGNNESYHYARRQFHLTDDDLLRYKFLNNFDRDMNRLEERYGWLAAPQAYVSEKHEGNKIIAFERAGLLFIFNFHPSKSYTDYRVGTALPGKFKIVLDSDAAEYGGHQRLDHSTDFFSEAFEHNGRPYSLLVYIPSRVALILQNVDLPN
UniProt Q06413, whole entry: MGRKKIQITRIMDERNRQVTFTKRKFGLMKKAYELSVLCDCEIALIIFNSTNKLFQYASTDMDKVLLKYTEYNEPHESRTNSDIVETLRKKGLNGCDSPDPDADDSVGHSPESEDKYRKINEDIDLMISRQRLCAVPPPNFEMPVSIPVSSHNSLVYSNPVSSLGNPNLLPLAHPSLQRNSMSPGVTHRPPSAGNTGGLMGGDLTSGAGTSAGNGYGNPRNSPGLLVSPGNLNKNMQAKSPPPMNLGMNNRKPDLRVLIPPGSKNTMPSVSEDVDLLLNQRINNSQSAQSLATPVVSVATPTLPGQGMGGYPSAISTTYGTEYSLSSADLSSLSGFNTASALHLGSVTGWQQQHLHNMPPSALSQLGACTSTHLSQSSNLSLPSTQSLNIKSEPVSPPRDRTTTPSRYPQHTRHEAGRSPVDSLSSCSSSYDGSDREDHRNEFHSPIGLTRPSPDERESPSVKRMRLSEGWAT
UniProt Q08170: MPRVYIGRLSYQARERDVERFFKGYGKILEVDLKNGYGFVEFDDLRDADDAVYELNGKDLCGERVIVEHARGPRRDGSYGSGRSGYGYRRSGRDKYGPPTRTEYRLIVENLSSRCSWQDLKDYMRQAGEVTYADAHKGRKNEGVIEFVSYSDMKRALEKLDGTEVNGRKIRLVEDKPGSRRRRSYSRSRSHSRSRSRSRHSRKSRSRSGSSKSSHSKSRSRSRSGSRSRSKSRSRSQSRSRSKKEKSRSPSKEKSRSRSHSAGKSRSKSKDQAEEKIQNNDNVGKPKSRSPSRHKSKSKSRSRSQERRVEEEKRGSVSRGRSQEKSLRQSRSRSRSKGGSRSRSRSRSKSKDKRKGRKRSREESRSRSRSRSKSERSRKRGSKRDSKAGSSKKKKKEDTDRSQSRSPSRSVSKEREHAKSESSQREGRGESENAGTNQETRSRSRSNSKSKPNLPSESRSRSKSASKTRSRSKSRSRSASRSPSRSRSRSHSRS
UniProt Q00796: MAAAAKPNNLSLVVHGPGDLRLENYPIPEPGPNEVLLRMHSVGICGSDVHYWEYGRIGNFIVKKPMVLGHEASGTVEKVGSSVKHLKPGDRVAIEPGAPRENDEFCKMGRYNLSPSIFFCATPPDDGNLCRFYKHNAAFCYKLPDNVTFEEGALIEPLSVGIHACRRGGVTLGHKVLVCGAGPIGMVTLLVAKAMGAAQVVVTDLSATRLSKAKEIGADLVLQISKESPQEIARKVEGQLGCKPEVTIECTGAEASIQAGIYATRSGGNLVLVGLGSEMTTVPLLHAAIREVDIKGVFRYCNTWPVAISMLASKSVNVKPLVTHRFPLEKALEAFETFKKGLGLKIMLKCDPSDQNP
UniProt Q12840: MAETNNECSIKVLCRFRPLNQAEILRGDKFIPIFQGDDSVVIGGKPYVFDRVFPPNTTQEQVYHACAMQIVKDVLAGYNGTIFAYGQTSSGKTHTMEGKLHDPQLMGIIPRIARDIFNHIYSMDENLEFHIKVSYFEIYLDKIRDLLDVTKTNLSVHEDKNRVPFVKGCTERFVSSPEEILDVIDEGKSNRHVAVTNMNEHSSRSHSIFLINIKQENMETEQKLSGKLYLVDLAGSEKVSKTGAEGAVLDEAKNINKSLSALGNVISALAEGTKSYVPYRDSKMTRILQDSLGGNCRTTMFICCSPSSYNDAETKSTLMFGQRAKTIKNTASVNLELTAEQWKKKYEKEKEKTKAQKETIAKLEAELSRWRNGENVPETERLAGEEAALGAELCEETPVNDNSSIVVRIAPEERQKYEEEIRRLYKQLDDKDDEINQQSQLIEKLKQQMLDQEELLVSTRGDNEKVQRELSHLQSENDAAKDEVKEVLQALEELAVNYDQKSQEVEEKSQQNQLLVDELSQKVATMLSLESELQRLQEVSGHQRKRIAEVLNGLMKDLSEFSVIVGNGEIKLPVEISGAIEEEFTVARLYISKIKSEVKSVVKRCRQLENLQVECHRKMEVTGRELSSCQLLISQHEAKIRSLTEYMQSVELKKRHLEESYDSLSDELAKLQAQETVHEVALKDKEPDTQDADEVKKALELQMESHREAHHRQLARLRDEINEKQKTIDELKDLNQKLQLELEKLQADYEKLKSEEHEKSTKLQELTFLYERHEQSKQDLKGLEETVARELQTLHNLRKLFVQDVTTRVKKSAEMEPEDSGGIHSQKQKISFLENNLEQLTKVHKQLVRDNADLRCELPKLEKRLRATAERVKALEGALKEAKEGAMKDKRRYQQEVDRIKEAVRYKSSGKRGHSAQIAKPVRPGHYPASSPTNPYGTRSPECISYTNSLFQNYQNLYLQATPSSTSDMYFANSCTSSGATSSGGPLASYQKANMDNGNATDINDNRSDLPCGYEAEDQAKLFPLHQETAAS
UniProt Q09028, whole entry: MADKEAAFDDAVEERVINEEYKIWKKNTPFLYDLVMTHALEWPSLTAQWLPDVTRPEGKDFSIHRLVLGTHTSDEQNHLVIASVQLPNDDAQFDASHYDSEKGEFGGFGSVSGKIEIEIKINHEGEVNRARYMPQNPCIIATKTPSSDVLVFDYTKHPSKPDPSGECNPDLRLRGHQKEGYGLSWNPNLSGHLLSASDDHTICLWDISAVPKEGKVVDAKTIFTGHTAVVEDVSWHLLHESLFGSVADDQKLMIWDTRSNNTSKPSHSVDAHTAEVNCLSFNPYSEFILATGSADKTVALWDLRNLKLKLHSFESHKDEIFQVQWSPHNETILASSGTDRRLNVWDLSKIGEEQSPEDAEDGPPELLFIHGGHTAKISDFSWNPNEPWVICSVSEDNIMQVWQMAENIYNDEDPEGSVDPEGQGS
UniProt Q12904: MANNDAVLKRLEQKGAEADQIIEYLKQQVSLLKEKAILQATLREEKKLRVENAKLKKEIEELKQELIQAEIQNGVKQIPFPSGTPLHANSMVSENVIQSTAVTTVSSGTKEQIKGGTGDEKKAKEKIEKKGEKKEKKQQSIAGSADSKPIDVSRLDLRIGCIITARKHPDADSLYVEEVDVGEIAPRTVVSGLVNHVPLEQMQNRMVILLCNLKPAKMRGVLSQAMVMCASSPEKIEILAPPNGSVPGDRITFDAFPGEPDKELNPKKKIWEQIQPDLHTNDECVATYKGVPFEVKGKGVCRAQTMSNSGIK
UniProt Q00536: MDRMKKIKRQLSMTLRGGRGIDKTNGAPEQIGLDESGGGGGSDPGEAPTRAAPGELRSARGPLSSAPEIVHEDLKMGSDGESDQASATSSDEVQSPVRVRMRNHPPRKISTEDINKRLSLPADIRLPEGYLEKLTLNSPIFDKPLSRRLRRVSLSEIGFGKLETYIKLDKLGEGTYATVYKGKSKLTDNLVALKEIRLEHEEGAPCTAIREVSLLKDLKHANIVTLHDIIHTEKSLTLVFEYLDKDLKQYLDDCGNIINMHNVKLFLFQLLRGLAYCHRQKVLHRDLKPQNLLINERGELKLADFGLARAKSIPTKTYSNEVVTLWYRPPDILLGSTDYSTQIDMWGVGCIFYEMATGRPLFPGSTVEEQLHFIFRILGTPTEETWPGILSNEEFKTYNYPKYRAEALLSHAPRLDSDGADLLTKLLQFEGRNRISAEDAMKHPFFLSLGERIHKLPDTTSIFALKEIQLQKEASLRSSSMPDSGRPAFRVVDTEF
UniProt Q00534, whole entry: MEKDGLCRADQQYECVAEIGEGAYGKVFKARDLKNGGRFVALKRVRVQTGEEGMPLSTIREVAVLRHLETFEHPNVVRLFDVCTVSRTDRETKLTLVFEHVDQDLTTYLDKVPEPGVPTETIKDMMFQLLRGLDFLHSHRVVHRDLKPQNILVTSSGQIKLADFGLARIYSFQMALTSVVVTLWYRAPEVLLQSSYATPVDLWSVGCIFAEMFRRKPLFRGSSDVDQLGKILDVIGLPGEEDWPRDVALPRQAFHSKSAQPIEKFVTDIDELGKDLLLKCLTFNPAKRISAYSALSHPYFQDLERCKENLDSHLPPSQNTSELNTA

Target | log2 fold change
UniProt Q04741 (peptide sequence: NHYVVGAERK, peptide start residue: 214) | -0.142
TRAP1 (peptide sequence: FFIDQSK, peptide start residue: 425) (UniProt Q12931) | -0.228
CDKL1 (peptide sequence: LCDFGFAR, peptide start residue: 693) (UniProt Q00532) | -0.058
AP1B1 (peptide sequence: NINLIVQK, peptide start residue: 305) (UniProt Q10567) | -0.186
UniProt P83876 (peptide sequence: FGHDWDPTCMK, peptide start residue: 30) | 0.322
SSRP1 (peptide sequence: SKEFVSSDESSSGENK, peptide start residue: 662) (UniProt Q08945) | 0.499
UniProt P86791 (peptide sequence: HIEPELAGR, peptide start residue: 256) | 0.283
KLC1 (peptide sequence: DDESNLVEEKSNMIR, peptide start residue: 59) (UniProt Q07866) | -0.713
FOXO4 (peptide sequence: SSSNASSVSTR, peptide start residue: 260) (UniProt P98177) | 0.426
TIAL1 (peptide sequence: DTSNHFHVFVGDLSPEITTEDIK, peptide start residue: 92) (UniProt Q01085) | 0.0934
UniProt P84098 (peptide sequence: VWLDPNETNEIANANSR, peptide start residue: 22) | 0.155
APBA1 (peptide sequence: MMQAQEAVSR, peptide start residue: 394) (UniProt Q02410) | -0.0233
ACACA (peptide sequence: QVLIASHLPSYELR, peptide start residue: 1083) (UniProt Q13085) | 0.0941
GBE1 (peptide sequence: GNNESYHYAR, peptide start residue: 555) (UniProt Q04446) | -0.124
FOXK2 (peptide sequence: EKQEASESPVK, peptide start residue: 163) (UniProt Q01167) | -0.488
ICA1 (peptide sequence: DLQASLQEPAK, peptide start residue: 437) (UniProt Q05084) | 0.312
MRPS9 (peptide sequence: KKPGQEGAR, peptide start residue: 380) (UniProt P82933) | -0.292
NSUN2 (peptide sequence: LSSPCIMVVNHDASSIPR, peptide start residue: 231) (UniProt Q08J23) | 0.105
MEF2C (peptide sequence: SPPPMNLGMNNR, peptide start residue: 240) (UniProt Q06413) | -0.176

Reprinted at random: two entries already listed, in no set order.
Target | log2 fold change
FOXO4 (peptide sequence: SSSNASSVSTR, peptide start residue: 260) (UniProt P98177) | 0.426
AP1B1 (peptide sequence: NINLIVQK, peptide start residue: 305) (UniProt Q10567) | -0.186

(further entries)

Target | log2 fold change
CDK5 (peptide sequence: KYFDSCNGDLDPEIVK, peptide start residue: 89) (UniProt Q00535) | 0.462
XPC (peptide sequence: GCSHPGGSADGPAK, peptide start residue: 59) (UniProt Q01831) | 0.223
UniProt Q08170 (peptide sequence: RALEKLDGTEVNGR, peptide start residue: 155) | -0.438
SOS2 (peptide sequence: LTYHMYADPNFVR, peptide start residue: 613) (UniProt Q07890) | 0.124
SORD (peptide sequence: VAIEPGAPR, peptide start residue: 92) (UniProt Q00796) | 0.328
TBL3 (peptide sequence: REAPEELLAYEGVR, peptide start residue: 741) (UniProt Q12788) | 0.392
RNASEL (peptide sequence: GGATALMDAAEKGHVEVLK, peptide start residue: 167) (UniProt Q05823) | 0.309
CYCS (peptide sequence: ADLIAYLK, peptide start residue: 93) (UniProt P99999) | 0.0137
KIF5A (peptide sequence: SAEMEPEDSGGIHSQK, peptide start residue: 812) (UniProt Q12840) | 0.112
EIF4G1 (peptide sequence: LKMLTEAIMHDCVVK, peptide start residue: 908) (UniProt Q04637) | 1.01
PTPN11 (peptide sequence: GVDCDIDVPK, peptide start residue: 483) (UniProt Q06124) | 0.183
UniProt Q09028 (peptide sequence: EAAFDDAVEER, peptide start residue: 5) | 0.0466
UniProt Q12904 (peptide sequence: AILQATLREEK, peptide start residue: 36) | -0.2
UniProt Q00536 (peptide sequence: ISAEDAMKHPFFLSLGER, peptide start residue: 435) | 0.657
UniProt Q06732 (peptide sequence: SSLTVHHR, peptide start residue: 705) | 0.26
CDK6 (peptide sequence: CLTFNPAK, peptide start residue: 280) (UniProt Q00534) | 0.113
CRYZ (peptide sequence: EVNYIDKIK, peptide start residue: 202) (UniProt Q08257) | -0.848
EXOSC10 (peptide sequence: TARREDESYGYVLPNHMMLK, peptide start residue: 520) (UniProt Q01780) | 1.08

— the supplement of paper PMC12819154, “High-throughput peptide-centric local stability assay extends protein–ligand identification to membrane proteins, tissues and bacteria” (Nature Structural & Molecular Biology, 2025)
